Data published in the supplement of paper PMC3682954.
Values joined by “and” are separate entries in the source; they are usually repeats but may differ in a detail not shown here. Equal values may be shown once. Where a name gives a salt, the structure may show the parent alone. ± gives the standard deviation of the averaged measurements. Some of the results follow. Most values come without repeats; read them as rough.

System: RAW 264.7
Test: cell viability (MTT) relative to vehicle control; higher = more viable cells
Conditions: stimulus: HMGB1 5 ug/ml, 18 h
[1] = compound concentration: 1 ug/ml

Row | Structure (SMILES) | cell viability (compound concentration: 3 uM) | cell viability [1]
1 | CCCOc1cc(N)ccc1C(=O)OCCN(CC)CC [Propoxycaine hydrochloride] | 91.4% | –
2 | NCCc1c[nH]cn1 [Histamine Dihydrochloride] | – | 103%
3 | NCCc1c[nH]cn1 [Histamine dihydrochloride] | 100% | –
4 | NCCc1c[nH]cn1 | 102% | –
5 | Cc1cn[nH]c1 | 112% | –
6 | Cc1cn[nH]c1 [4-Methylpyrazole hydrochloride] | 112% | –
7 | OC[C@H]1O[C@@H](n2cnc3c(O)nc(O)nc32)[C@H](O)[C@@H]1O [Xanthosine dihydrate] | – | 96.2%
8 | OCCN1CCN(CC/C=C2/c3ccccc3Sc3ccc(C(F)(F)F)cc32)CC1 [cis-(Z)-Flupenthixol dihydrochloride] | 95.5% | –
9 | CC(=Cc1ccc(C(=O)O)cc1)c1ccc2c(c1)C(C)(C)CCC2(C)C | 103% | –
10 | O=C(O)CCCCCCCC(=O)O | 101 ± 5.8% | –
11 | O=C(O)CCCCCCCC(=O)O [Azelaic acid] | 103% | –
12 | CC(=O)OCC(=O)[C@@]1(O)CC[C@H]2[C@@H]3CCC4=CC(=O)CC[C@]4(C)[C@@]3(F)[C@@H](O)C[C@@]21C [Fludrocortisone acetate] | 98.4% | –
13 | CC(=O)OCC(=O)[C@@]1(O)CC[C@H]2[C@@H]3CCC4=CC(=O)CC[C@]4(C)[C@@]3(F)[C@@H](O)C[C@@]21C | 115% | –
14 | COC(=O)Nc1nc2cc(C(=O)c3cccs3)ccc2[nH]1 [Nocodazole] | 63.8 ± 16% | –
15 | COC(=O)Nc1nc2cc(C(=O)c3cccs3)ccc2[nH]1 | 111% | –
16 | Cc1ccc(C(=O)c2ccc(CC(=O)O)n2C)cc1 [Tolmetin sodium salt dihydrate] | 84.4% | –
17 | Cc1ccc(C(=O)c2ccc(CC(=O)O)n2C)cc1 | 108% | –
18 | Cc1ccc(C(=O)c2ccc(CC(=O)O)n2C)cc1 [Tolmetin] | 97.2% | –
19 | CCCCN(CCCC)CCCOC(=O)c1ccc(N)cc1 [Butacaine] | 89.2% | –
20 | CCCCN(CCCC)CCCOC(=O)c1ccc(N)cc1 | 102% | –
21 | O=C(O)CN1C(=O)c2cccc3cccc(c23)C1=O | 107% | –
22 | CC[N+](C)(CC)CCOC(=O)C1c2ccccc2Oc2ccccc21 [Methantheline bromide] | 94.7% | –
23 | CC(=O)OCC(=O)[C@@]1(O)CC[C@H]2[C@@H]3CCC4=CC(=O)C=C[C@]4(C)[C@@]3(Cl)[C@@H](Cl)C[C@@]21C | 107% | –
24 | CCN[C@H]1CN(CCCOC)S(=O)(=O)c2sc(S(N)(=O)=O)cc21 [Brinzolamide] | 88.2% | –
25 | CC(=O)OCC(=O)[C@@]1(O)CC[C@H]2[C@@H]3CCC4=CC(=O)CC[C@]4(C)[C@H]3[C@@H](O)C[C@@]21C | 109% | –
26 | CC(=O)OCC(=O)[C@@]1(O)CC[C@H]2[C@@H]3CCC4=CC(=O)CC[C@]4(C)[C@H]3[C@@H](O)C[C@@]21C [Hydrocortisone 21-acetate] | 107% | –

Two entries drawn at random from those above:
Row | Structure (SMILES) | cell viability (compound concentration: 3 uM) | cell viability [1]
8 | OCCN1CCN(CC/C=C2/c3ccccc3Sc3ccc(C(F)(F)F)cc32)CC1 [cis-(Z)-Flupenthixol dihydrochloride] | 95.5% | –
3 | NCCc1c[nH]cn1 [Histamine dihydrochloride] | 100% | –

The list goes on:

Row | Structure (SMILES) | cell viability (compound concentration: 3 uM) | cell viability [1]
27 | CC(=O)OCC(=O)[C@@]1(O)CC[C@H]2[C@@H]3CCC4=CC(=O)CC[C@]4(C)[C@H]3[C@@H](O)C[C@@]21C [Cortisol acetate] | 113% | –
28 | CN(C)CCC(c1ccc(Cl)cc1)c1ccccn1 (racemic) [(±)-Chlorpheniramine maleate] | 105% | –
29 | CC(C)c1c(C(=O)Nc2ccccc2)c(-c2ccccc2)c(-c2ccc(F)cc2)n1CC[C@@H](O)C[C@@H](O)CC(=O)O | 121% | –
30 | CC(C)c1c(C(=O)Nc2ccccc2)c(-c2ccccc2)c(-c2ccc(F)cc2)n1CC[C@@H](O)C[C@@H](O)CC(=O)O [Atorvastatin] | 124% | –
31 | Cc1ncc(C[n+]2csc(CCO)c2C)c(N)n1 | 106% | –
32 | C=CC(N)CCC(=O)O (stereo not drawn) | 102% | –
33 | C=CC(N)CCC(=O)O (stereo not drawn) [Vigabatrin] | 88.2% | –
34 | CCCCCCCCCCCCCCCC(=O)OC/C=C(C)/C=C/C=C(C)/C=C/C1=C(C)CCCC1(C)C | 99.6% | –
35 | NS(=O)(=O)c1cc(C2(O)NC(=O)c3ccccc32)ccc1Cl (stereo not drawn) | 106% | –
36 | NS(=O)(=O)c1cc(C2(O)NC(=O)c3ccccc32)ccc1Cl (stereo not drawn) [Chlorthalidone] | 85.6% | –
37 | CC(Cc1cccc(C(F)(F)F)c1)NCCOC(=O)c1ccccc1 (stereo not drawn) | 102% | –
38 | CC(Cc1cccc(C(F)(F)F)c1)NCCOC(=O)c1ccccc1 (stereo not drawn) [Benfluorex hydrochloride] | 93.4% | –
39 | COc1cc(-c2oc3c(O)c(OC4OC(COC(C)=O)C(O)C(O)C4OC4OC(C)C(O)C(O)C4O)cc(O)c3c(=O)c2O)ccc1O (stereo not drawn) [Haploside D] | – | 108%
40 | CCCc1cc(C(N)=S)ccn1 [Prothionamide] | 95.4 ± 7.5% | –
41 | CCCc1cc(C(N)=S)ccn1 | 111% | –
42 | COc1ccccc1-c1oc2ccccc2c(=O)c1OC | – | 99.9%
43 | CC(C)(C)NCC(O)COc1cccc2[nH]c(=O)[nH]c12 (racemic) | 102% | –
44 | CC(=O)S[C@@H]1CC2=CC(=O)CC[C@]2(C)[C@H]2CC[C@@]3(C)[C@@H](CC[C@@]34CCC(=O)O4)[C@H]12 | 106% | –
45 | CC(=O)S[C@@H]1CC2=CC(=O)CC[C@]2(C)[C@H]2CC[C@@]3(C)[C@@H](CC[C@@]34CCC(=O)O4)[C@H]12 [Spironolactone] | 104 ± 12% | –
46 | NNCCc1ccccc1 [Phenelzine sulfate] | 105 ± 22% | –
47 | NNCCc1ccccc1 | 106% and 101% | –
48 | NC1(C(=O)O)CCCCC1 [1-Amino-1-cyclohexanecarboxylic acid hydrochloride] | 105% | –
49 | C=C1CC[C@H](O)C/C1=C/C=C1\CCC[C@]2(C)[C@@H]([C@H](C)CCCC(C)C)CC[C@@H]12 | 103% | –
50 | C=C1CC[C@H](O)C/C1=C/C=C1\CCC[C@]2(C)[C@@H]([C@H](C)CCCC(C)C)CC[C@@H]12 [Cholecalciferol] | 140% | –
51 | CN1CCN(CC/C=C2/c3ccccc3Sc3ccc(S(=O)(=O)N(C)C)cc32)CC1 | 98.2% | –
52 | CC(C)(CO)[C@@H](O)C(=O)NCCC(=O)NCCSSCCNC(=O)CCNC(=O)[C@H](O)C(C)(C)CO | 110% | –

Row | Structure (SMILES) | cell viability (compound concentration: 3 uM) | cell viability [1]
53 | CC(C)(C=O)Cc1cc(C(C)(C)C)c(O)c(C(C)(C)C)c1 | 113% | –
54 | C[C@H]1O[C@H](O[C@H]2[C@H](O)[C@@H](O)[C@@H](O[C@H]3[C@H](O)[C@@H](O)C(O)O[C@@H]3CO)O[C@@H]2CO)[C@H](O)[C@@H](O)[C@@H]1N[C@H]1C=C(CO)[C@@H](O)[C@H](O)[C@H]1O (stereo partly drawn) [Acarbose] | 110% | –
55 | C[C@H]1O[C@H](O[C@H]2[C@H](O)[C@@H](O)[C@@H](O[C@H]3[C@H](O)[C@@H](O)C(O)O[C@@H]3CO)O[C@@H]2CO)[C@H](O)[C@@H](O)[C@@H]1N[C@H]1C=C(CO)[C@@H](O)[C@H](O)[C@H]1O (stereo partly drawn) | 98.8 ± 6.4% | –
56 | N=C(N)NC(=N)NCCc1ccccc1 [Phenformin hydrochloride] | 105% | –
57 | N=C(N)NC(=N)NCCc1ccccc1 | 108% | –
58 | CO[C@H]1/C=C/O[C@@]2(C)Oc3c(C)c(O)c4c(O)c(c(/C=N/N5CCN(C6CCCC6)CC5)c(O)c4c3C2=O)NC(=O)/C(C)=C\C=C\[C@H](C)[C@H](O)[C@@H](C)[C@@H](O)[C@@H](C)[C@H](OC(C)=O)[C@@H]1C [Rifapentine] | 116% | –
59 | CO[C@H]1/C=C/O[C@@]2(C)Oc3c(C)c(O)c4c(O)c(c(/C=N/N5CCN(C6CCCC6)CC5)c(O)c4c3C2=O)NC(=O)/C(C)=C\C=C\[C@H](C)[C@H](O)[C@@H](C)[C@@H](O)[C@@H](C)[C@H](OC(C)=O)[C@@H]1C | 99.6% | –
60 | CC(C)(C)NC[C@@H](O)COc1cccc2c1CCCC2=O [(+) -Levobunolol hydrochloride] | 87.7% | –
61 | NCC(O)C1CCCCCCC1 (stereo not drawn) [2-Cyclooctyl-2-hydroxyethylamine hydrochloride] | 110% | –
62 | CN1CCC(=C2c3ccccc3C=Cc3ccccc32)CC1 [Cyproheptadine hydrochloride] | 103.4 ± 0.79% | –
63 | CN1CCC(=C2c3ccccc3C=Cc3ccccc32)CC1 [Cyproheptadine] | 90.5% | –
64 | CN1CCC(=C2c3ccccc3C=Cc3ccccc32)CC1 | 97.5 ± 4.6% | –
65 | O=c1c(O)c(-c2ccc(O)cc2O)oc2cc(O)cc(O)c12 [Morin] | 103% | –
66 | O=c1c(O)c(-c2ccc(O)cc2O)oc2cc(O)cc(O)c12 [Morin hydrate] | – | 115%
67 | CC(/C=C/c1cccc(Oc2ccc(F)cc2)c1)N(O)C(N)=O (stereo not drawn) | 98.4% | –
68 | COc1ccc(C2CNC(=O)C2)cc1OC1CCCC1 (stereo not drawn) [Rolipram] | 99.5 ± 16% | –
69 | COc1ccc(C2CNC(=O)C2)cc1OC1CCCC1 (stereo not drawn) | 96.4 ± 15% | –
70 | CC(C)C[C@@H](NC(=O)[C@H](C)NC(=O)CNC(=O)[C@@H](NC=O)C(C)C)C(=O)N[C@@H](C)C(=O)N[C@@H](C(=O)N[C@H](C(=O)N[C@H](C(=O)N[C@@H](Cc1c[nH]c2ccccc12)C(=O)N[C@H](CC(C)C)C(=O)N[C@@H](Cc1c[nH]c2ccccc12)C(=O)N[C@H](CC(C)C)C(=O)N[C@@H](Cc1c[nH]c2ccccc12)C(=O)N[C@H](CC(C)C)C(=O)N[C@@H](Cc1c[nH]c2ccccc12)C(=O)NCCO)C(C)C)C(C)C)C(C)C | 27.1% | –
71 | OC[C@H]1O[C@@H](Oc2cc(O)cc(/C=C/c3ccc(O)cc3)c2)[C@H](O)[C@@H](O)[C@@H]1O | 96.5% | –
72 | NC(=O)NCCCC(N)C(=O)O (stereo not drawn) [L(+)-Citrulline] | – | 100%
73 | CCCCN1CCCC1CNC(=O)c1cc(C#N)c2ccccc2c1OC (stereo not drawn) [Nafadotride] | 104% | –
74 | c1ccc2c3c([nH]c2c1)C1C2CCC(C4CCCNC42)N1CC3 (stereo not drawn) [Nitrarine dihydrochloride] | 108% | –
75 | O=C1C[C@@H](c2ccc(O)cc2)Oc2cc(O)cc(O)c21 [Naringenin] | – | 97.8%
76 | CCC(=O)O[C@]1(C(=O)CCl)[C@@H](C)C[C@H]2[C@@H]3CCC4=CC(=O)C=C[C@]4(C)[C@@]3(F)[C@@H](O)C[C@@]21C [Clobetasol propionate] | 146% | –
77 | CCC(=O)O[C@]1(C(=O)CCl)[C@@H](C)C[C@H]2[C@@H]3CCC4=CC(=O)C=C[C@]4(C)[C@@]3(F)[C@@H](O)C[C@@]21C | 107% | –
78 | CCC(=O)O[C@]1(C(=O)CCl)[C@@H](C)C[C@H]2[C@@H]3CCC4=CC(=O)C=C[C@]4(C)[C@@]3(F)[C@@H](O)C[C@@]21C [Clobetasol Propionate] | 106% | –

Rewritten tab-delimited: part of the list above.
Row	Structure (SMILES)	cell viability (compound concentration: 3 uM)	cell viability [1]
76	CCC(=O)O[C@]1(C(=O)CCl)[C@@H](C)C[C@H]2[C@@H]3CCC4=CC(=O)C=C[C@]4(C)[C@@]3(F)[C@@H](O)C[C@@]21C [Clobetasol propionate]	146%	–
77	CCC(=O)O[C@]1(C(=O)CCl)[C@@H](C)C[C@H]2[C@@H]3CCC4=CC(=O)C=C[C@]4(C)[C@@]3(F)[C@@H](O)C[C@@]21C	107%	–
